In the supplement of paper PMC10849652:
The other results are listed elsewhere or left out.

Amino acid sequences for entries named in this document (tags omitted). A change or cut given only in a name is not applied to a line headed by its entry.
UniProt Q9H257: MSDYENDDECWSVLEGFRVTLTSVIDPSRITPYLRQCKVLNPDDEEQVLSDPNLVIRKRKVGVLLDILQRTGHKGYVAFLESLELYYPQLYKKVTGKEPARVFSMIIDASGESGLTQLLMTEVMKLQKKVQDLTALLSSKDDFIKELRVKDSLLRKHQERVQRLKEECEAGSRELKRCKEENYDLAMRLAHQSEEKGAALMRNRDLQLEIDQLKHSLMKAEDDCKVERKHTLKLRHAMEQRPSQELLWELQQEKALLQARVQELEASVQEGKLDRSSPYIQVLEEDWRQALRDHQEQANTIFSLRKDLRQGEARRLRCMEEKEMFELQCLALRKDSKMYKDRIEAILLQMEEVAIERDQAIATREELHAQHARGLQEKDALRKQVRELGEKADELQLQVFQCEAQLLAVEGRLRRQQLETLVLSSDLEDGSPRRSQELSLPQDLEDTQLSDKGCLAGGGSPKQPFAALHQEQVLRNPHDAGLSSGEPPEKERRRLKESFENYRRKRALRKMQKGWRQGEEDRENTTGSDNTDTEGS
UniProt Q8ND76: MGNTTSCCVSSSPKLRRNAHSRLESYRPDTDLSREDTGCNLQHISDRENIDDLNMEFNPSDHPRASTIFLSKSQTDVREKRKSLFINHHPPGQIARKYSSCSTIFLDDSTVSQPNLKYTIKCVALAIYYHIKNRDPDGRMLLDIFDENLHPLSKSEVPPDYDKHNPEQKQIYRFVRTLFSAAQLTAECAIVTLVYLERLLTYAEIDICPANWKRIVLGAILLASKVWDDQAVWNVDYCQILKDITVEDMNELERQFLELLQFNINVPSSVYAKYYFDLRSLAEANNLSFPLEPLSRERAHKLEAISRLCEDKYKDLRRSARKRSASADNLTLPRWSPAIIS
UniProt Q9BSQ5: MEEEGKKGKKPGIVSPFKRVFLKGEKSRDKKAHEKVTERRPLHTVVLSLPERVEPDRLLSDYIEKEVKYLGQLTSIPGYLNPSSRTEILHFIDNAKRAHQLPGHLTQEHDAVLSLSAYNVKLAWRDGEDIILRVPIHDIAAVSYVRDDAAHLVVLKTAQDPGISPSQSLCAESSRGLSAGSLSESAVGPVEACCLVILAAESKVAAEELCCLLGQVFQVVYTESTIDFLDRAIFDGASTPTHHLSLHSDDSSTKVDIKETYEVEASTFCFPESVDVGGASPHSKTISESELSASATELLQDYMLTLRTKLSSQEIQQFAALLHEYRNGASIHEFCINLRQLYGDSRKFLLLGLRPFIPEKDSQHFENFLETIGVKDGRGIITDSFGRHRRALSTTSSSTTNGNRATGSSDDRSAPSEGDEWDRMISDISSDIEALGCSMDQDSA
UniProt P15529: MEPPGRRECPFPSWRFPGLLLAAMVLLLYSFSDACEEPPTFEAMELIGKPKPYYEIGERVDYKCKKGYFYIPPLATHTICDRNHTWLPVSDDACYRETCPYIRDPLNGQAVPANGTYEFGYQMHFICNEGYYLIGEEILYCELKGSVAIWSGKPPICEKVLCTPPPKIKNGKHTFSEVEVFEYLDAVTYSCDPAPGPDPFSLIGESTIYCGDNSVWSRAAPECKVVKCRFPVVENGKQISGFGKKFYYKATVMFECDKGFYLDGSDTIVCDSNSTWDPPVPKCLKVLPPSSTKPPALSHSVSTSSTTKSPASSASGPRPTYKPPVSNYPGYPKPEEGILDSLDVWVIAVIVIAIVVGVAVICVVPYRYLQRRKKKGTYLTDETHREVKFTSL
UniProt A6NHX0: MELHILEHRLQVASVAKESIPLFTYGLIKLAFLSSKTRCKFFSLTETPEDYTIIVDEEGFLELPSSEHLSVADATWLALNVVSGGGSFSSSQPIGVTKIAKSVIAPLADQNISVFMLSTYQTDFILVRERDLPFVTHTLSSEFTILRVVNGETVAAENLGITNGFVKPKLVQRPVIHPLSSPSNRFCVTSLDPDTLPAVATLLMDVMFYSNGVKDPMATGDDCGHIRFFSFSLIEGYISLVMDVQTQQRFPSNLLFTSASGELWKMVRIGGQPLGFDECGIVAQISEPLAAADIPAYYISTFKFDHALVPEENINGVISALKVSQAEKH
UniProt Q8IVM0: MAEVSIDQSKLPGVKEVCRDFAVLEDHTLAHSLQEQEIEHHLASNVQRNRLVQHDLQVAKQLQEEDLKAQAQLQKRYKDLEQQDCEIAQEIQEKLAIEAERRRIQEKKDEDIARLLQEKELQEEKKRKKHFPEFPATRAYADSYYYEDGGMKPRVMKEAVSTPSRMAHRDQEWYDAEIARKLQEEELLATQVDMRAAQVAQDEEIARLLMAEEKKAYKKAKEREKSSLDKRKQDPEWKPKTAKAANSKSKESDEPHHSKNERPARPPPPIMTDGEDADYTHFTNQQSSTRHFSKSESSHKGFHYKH
UniProt P13987: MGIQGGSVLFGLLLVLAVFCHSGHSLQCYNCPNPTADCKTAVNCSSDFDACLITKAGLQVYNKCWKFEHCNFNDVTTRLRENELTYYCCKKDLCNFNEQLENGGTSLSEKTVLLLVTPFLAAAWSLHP
UniProt Q9Y5K6, whole entry, looked up: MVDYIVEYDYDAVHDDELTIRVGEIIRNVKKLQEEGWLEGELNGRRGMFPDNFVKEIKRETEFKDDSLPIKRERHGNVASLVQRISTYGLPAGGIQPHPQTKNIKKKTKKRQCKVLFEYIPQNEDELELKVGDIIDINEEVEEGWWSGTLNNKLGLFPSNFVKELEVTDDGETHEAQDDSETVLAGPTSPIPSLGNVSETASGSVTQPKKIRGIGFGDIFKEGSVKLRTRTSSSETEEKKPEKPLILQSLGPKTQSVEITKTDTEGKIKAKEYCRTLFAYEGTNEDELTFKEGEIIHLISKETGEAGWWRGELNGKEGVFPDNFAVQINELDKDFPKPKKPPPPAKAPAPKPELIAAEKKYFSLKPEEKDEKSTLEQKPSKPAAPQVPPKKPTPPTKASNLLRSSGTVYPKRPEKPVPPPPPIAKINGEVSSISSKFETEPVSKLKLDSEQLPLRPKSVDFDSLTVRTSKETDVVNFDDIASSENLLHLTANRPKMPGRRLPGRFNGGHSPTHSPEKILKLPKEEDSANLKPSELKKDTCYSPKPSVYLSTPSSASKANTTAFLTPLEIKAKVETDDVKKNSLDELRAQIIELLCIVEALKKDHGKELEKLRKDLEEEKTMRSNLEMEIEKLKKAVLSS
UniProt P40227, whole entry, looked up: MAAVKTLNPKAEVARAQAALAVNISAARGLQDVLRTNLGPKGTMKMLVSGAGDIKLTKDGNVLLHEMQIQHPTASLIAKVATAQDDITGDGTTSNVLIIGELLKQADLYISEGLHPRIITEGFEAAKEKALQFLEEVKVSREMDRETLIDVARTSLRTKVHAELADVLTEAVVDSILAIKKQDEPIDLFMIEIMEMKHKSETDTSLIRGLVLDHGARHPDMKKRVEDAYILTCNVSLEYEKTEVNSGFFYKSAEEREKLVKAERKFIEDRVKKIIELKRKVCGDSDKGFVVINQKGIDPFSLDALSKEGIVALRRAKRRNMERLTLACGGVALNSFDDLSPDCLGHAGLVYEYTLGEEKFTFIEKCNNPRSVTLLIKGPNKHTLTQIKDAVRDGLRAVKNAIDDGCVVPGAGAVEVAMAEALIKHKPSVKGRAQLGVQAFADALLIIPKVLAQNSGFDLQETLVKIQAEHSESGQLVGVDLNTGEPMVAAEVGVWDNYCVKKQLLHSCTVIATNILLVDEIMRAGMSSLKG
UniProt Q8IUF1: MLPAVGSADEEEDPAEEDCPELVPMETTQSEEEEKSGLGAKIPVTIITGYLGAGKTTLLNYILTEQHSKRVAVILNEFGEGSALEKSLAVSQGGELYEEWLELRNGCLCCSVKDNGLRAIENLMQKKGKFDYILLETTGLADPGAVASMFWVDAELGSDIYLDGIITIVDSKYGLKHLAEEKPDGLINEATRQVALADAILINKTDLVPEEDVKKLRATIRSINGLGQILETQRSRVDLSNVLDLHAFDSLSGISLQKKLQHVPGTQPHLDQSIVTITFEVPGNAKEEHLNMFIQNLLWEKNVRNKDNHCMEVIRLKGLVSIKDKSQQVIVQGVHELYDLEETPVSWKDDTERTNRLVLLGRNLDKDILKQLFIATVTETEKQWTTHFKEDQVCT
UniProt P08962, whole entry, looked up: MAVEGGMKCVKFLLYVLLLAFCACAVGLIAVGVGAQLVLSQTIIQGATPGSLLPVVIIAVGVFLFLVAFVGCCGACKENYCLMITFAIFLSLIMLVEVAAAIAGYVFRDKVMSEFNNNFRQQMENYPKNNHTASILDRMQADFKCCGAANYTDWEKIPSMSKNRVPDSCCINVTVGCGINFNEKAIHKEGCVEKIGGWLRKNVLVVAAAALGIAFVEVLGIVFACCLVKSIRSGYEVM
UniProt Q96MW1: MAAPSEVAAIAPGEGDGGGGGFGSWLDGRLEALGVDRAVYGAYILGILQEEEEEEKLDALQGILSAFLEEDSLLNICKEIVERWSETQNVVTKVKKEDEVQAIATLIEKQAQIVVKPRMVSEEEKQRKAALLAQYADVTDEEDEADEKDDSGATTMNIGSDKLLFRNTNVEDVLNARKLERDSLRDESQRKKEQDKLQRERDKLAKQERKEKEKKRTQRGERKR
UniProt P14635, whole entry, looked up: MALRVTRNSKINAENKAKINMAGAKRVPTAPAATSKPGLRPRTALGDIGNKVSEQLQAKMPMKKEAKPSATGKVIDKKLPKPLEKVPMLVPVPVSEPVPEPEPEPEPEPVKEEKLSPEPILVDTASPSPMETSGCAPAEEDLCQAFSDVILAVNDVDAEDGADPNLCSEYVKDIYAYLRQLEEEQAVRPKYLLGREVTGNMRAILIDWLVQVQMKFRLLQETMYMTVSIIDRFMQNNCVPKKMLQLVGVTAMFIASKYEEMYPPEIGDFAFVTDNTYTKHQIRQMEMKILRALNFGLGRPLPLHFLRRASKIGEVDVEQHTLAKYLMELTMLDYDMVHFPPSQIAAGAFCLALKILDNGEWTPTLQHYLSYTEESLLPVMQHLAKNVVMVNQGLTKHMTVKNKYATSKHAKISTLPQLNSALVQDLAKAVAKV
UniProt O15446, whole entry, looked up: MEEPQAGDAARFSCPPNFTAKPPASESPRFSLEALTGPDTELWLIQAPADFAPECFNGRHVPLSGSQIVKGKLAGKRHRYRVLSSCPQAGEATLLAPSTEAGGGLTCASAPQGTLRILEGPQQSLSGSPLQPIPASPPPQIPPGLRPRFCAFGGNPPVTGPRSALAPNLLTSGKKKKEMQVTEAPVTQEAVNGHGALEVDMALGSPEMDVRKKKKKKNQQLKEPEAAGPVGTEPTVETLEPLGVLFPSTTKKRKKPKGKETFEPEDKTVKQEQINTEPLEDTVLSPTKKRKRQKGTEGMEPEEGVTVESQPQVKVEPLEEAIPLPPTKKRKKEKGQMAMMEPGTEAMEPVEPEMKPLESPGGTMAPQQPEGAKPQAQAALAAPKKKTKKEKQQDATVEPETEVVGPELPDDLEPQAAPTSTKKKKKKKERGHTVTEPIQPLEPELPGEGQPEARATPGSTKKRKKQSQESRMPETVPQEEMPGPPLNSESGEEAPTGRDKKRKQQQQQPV
UniProt Q9ULG6: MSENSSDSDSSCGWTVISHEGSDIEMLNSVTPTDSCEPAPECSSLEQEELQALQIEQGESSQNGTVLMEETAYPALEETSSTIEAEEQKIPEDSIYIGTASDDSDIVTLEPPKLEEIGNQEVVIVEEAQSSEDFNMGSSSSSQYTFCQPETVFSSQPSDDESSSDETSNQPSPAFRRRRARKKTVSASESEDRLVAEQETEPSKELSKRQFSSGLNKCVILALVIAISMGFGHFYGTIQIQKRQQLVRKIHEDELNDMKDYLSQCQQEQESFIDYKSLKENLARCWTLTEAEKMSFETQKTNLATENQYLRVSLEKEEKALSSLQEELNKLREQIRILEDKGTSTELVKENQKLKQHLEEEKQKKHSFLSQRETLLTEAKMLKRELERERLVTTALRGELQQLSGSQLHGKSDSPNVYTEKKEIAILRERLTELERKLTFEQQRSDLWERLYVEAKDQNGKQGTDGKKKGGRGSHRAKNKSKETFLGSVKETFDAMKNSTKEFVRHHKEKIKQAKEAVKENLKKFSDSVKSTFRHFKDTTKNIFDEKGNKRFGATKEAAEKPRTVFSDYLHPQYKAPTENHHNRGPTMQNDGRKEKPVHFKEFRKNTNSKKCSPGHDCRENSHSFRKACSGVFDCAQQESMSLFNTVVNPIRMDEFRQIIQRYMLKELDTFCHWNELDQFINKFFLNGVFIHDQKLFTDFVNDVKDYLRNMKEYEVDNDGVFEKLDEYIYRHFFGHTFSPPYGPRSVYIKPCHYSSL
UniProt P42574: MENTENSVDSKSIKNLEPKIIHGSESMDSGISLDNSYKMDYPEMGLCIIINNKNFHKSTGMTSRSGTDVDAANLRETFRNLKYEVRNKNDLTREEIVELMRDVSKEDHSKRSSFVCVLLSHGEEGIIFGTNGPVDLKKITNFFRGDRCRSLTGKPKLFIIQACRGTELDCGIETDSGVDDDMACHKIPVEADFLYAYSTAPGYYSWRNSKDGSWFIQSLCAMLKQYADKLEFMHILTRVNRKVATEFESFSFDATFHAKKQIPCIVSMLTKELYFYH

Columns and labels:
Assay in all cases: log2 fold change, soluble protein after heating vs DMSO (PISA); higher = thermal stabilisation; K562 lysate, 10 uM; active = over 0.2 and 3.5 SD of the protein, either way, in both replicates (recomputed)
erlotinib = compound: C#Cc1cccc(Nc2ncnc3cc(OCCOC)c(OCCOC)cc23)c1 [erlotinib]
In short: (§1)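 Log-two fold change in thermal stability relative to solvent controls is reported from duplicates. For each sample, crude K562 extract from dounce-homogenised pellets in PBS pH 7.4 with 1 mM MgCl2, at 1 mg/mL protein, was treated with 10 μM compound for 30 min. Aliquots heated for 3 min across 48°C-58°C were pooled, brought to 0.5% NP-40 at 4°C and cleared at 21,000xg for 90 min. The supernatant was quantified by TMTpro 16plex LC-MS/MS with channel sums equalised.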

[1] = compound: C/C(=N\NC(=O)C1=CC(=CC=C1)S(=O)(=O)N2CCOCC2)/C3=C(C=CC(=C3)Cl)O
In short: as §1

[2] = compound: C1=CC(=CC=C1C2=NC3=C(N2)C=C(C=C3)C(=O)N)OC4=CC=C(C=C4)Cl
In short: as §1

[3] = compound: C1=CC2=C(C=CC(=C2)/C=C\3/C(=O)NC(=NCC4=CC=CS4)S3)N=C1
In short: as §1

[4] = compound: C1=CC2=NC=CN=C2C=C1/C=C/3\C(=O)NC(=O)S3
In short: as §1

[5] = compound: C1=CC=C(C=C1)C2=NC(=C(N2)C3=CC=NC=C3)C4=CC(=C(C=C4)Cl)O
In short: as §1

[6] = compound: C1=CC=C2C(=C1)C3=NNC4=CC=CC(=C43)C2=O
In short: as §1

[7] = compound: C1CCN(C1)C(=O)NC2=CC=CC(=C2)NC3=NC=C(C(=N3)NCCC4=CN=CN4)Br
In short: as §1

[8] = compound: C1CN(CCC1(CC2=CC=C(C=C2)Cl)N)C3=NC=NC4=C3C=CN4
In short: as §1

IRAK-1-4 Inhibitor I = compound: C1COCCN1CCN2C3=CC=CC=C3N=C2NC(=O)C4=CC(=CC=C4)[N+](=O)[O-] [IRAK-1-4 Inhibitor I]
In short: as §1

ibrutinib = compound: C=CC(=O)N1CCC[C@@H](n2nc(-c3ccc(Oc4ccccc4)cc3)c3c(N)ncnc32)C1 [ibrutinib]
In short: as §1

[9] = compound: CC(=O)c1cnc2ccc(-c3cc(Cl)c(O)c(Cl)c3)nc2c1N[C@H]1CC[C@H](CN(C)C)CC1
In short: as §1

ralimetinib = compound: CC(C)(C)Cn1c(N)nc2ccc(-c3[nH]c(C(C)(C)C)nc3-c3ccc(F)cc3)nc21 [ralimetinib]
In short: as §1

[10] = compound: CC(C)(O)CC(=O)NCCn1ccc2ncnc(Nc3ccc(Oc4cccc(C(F)(F)F)c4)c(Cl)c3)c21
In short: as §1

[11] = compound: CC(C)C1=C2N=C(C=C(N2N=C1)NCC3=CC=CC=C3)NCCCCCCN
In short: as §1

[12] = compound: CC1=C(C(CC(=O)N1)C2=CC=C(C=C2)C(F)(F)F)C(=O)NC3=C(C=C4C(=C3)C=NN4)F
In short: as §1

[13] = compound: CC1=C(C2=C(C=C1)C(=O)C3=CC=CC=C3N2CCCN)C
In short: as §1

[14] = compound: CC1=C(C=C(C=C1)NC(=O)C2=CC(=CC=C2)C(C)(C)C#N)NC3=CC4=C(C=C3)N=CN(C4=O)C
In short: as §1

[15] = compound: CC1=C(C=C(C=C1)NC(=O)C2=CC(=CC=C2)N(C)C)NC(=O)C3=CC=C(C=C3)O
In short: as §1

[16] = compound: CC1=CC=C(C=C1)SC2=C3C=C(SC3=CN=C2)C(=O)N
In short: as §1

| Target | log2 fold change (erlotinib) | log2 fold change [1] | log2 fold change [2] | log2 fold change [3] | log2 fold change [4] | log2 fold change [5] | log2 fold change [6] | log2 fold change [7] | log2 fold change [8] | log2 fold change (IRAK-1-4 Inhibitor I) | log2 fold change (ibrutinib) | log2 fold change [9] | log2 fold change (ralimetinib) | log2 fold change [10] | log2 fold change [11] | log2 fold change [12] | log2 fold change [13] | log2 fold change [14] | log2 fold change [15] | log2 fold change [16] |
| --- | --- | --- | --- | --- | --- | --- | --- | --- | --- | --- | --- | --- | --- | --- | --- | --- | --- | --- | --- | --- |
| CARD9 (UniProt Q9H257) | inactive: 0.035 | inactive: -0.024 | inactive: -0.029 | inactive: -0.02 | inactive: -0.024 | inactive: -0.009 | inactive: 0.033 | inactive: 0.015 | inactive: -0.003 | inactive: 0.017 | inactive: -0.034 | inactive: 0.037 | inactive: 0.014 | inactive: -0.029 | inactive: 0.019 | inactive: -0.022 | inactive: -0.027 | inactive: -0.005 | inactive: -0.008 | inactive: -0.038 |
| CCNY (UniProt Q8ND76) | inactive: -0.082 | inactive: -0.033 | inactive: 0.041 | inactive: -0.037 | inactive: 0.052 | inactive: 0 | inactive: 0.168 | inactive: -0.016 | inactive: -0.032 | inactive: 0.063 | inactive: 0 | inactive: -0.013 | inactive: -0.046 | inactive: -0.099 | inactive: 0.014 | inactive: -0.036 | inactive: 0.023 | inactive: 0.063 | inactive: 0.078 | inactive: 0.001 |
| CCM2 isoform 2 (UniProt Q9BSQ5) | inactive: -0.002 | inactive: -0.163 | inactive: -0.04 | inactive: -0.03 | inactive: -0.029 | inactive: -0.054 | inactive: -0.055 | inactive: 0 | inactive: 0.012 | inactive: 0.042 | inactive: 0.078 | inactive: 0.099 | inactive: -0.067 | inactive: 0.008 | inactive: 0 | inactive: 0.019 | inactive: -0.014 | inactive: 0.061 | inactive: 0.036 | inactive: -0.003 |
| CD46 isoform 2 (UniProt P15529) | inactive: -0.028 | inactive: -0.022 | inactive: 0.037 | inactive: -0.003 | inactive: -0.004 | inactive: 0.007 | inactive: 0.02 | inactive: 0.001 | inactive: -0.023 | inactive: 0.022 | inactive: 0.014 | inactive: 0.004 | inactive: 0.048 | inactive: 0.028 | inactive: -0.018 | inactive: -0.004 | inactive: 0.03 | inactive: 0.056 | inactive: 0.004 | inactive: 0.017 |
| CASTOR2 (UniProt A6NHX0) | inactive: -0.015 | inactive: -0.258 | inactive: -0.037 | inactive: -0.023 | inactive: 0.029 | inactive: 0.033 | inactive: 0.045 | inactive: -0.064 | inactive: 0.011 | inactive: 0.022 | inactive: -0.03 | inactive: 0.028 | inactive: 0.008 | inactive: 0.051 | inactive: -0.025 | inactive: -0.037 | inactive: 0.015 | inactive: -0.024 | inactive: 0.015 | inactive: -0.011 |
| CCDC50 isoform 2 (UniProt Q8IVM0) | inactive: -0.085 | inactive: 0.028 | inactive: -0.103 | inactive: -0.024 | inactive: 0.02 | inactive: 0.014 | inactive: 0.072 | inactive: 0.041 | inactive: -0.013 | inactive: -0.023 | inactive: 0.068 | inactive: 0.019 | inactive: -0.014 | inactive: 0.072 | inactive: 0.002 | inactive: 0.014 | inactive: 0.066 | inactive: -0.009 | inactive: -0.008 | inactive: 0.009 |
| CD59 isoform 2 (UniProt P13987) | inactive: 0.04 | inactive: -0.001 | inactive: 0.004 | inactive: 0.03 | inactive: -0.038 | inactive: 0.008 | inactive: -0.024 | inactive: 0.022 | inactive: 0.035 | inactive: 0.035 | inactive: -0.03 | inactive: -0.004 | inactive: -0.008 | inactive: -0.019 | inactive: -0.009 | inactive: 0.019 | inactive: 0.054 | inactive: -0.093 | inactive: -0.043 | inactive: -0.007 |
| CD2AP (UniProt Q9Y5K6) | inactive: -0.011 | inactive: -0.028 | inactive: 0.03 | inactive: -0.017 | inactive: -0.019 | inactive: 0.014 | inactive: 0.01 | inactive: 0.023 | inactive: -0.002 | inactive: 0.01 | inactive: -0.003 | inactive: -0.007 | inactive: 0.015 | inactive: -0.022 | inactive: -0.005 | inactive: 0.014 | inactive: -0.012 | inactive: 0.012 | inactive: 0.012 | inactive: -0.028 |
| CCT6A (UniProt P40227) | inactive: -0.016 | inactive: -0.043 | inactive: 0.002 | inactive: 0.001 | inactive: -0.008 | inactive: 0.001 | inactive: 0.019 | inactive: 0.008 | inactive: -0.022 | inactive: -0.023 | inactive: 0.017 | inactive: -0.005 | inactive: -0.007 | inactive: 0.022 | inactive: -0.013 | inactive: -0.014 | inactive: 0.003 | inactive: -0.016 | inactive: -0.014 | inactive: 0.018 |
| CBWD2 (UniProt Q8IUF1) | inactive: 0.039 | inactive: 0.001 | inactive: -0.006 | inactive: 0.05 | inactive: -0.027 | inactive: 0.041 | inactive: -0.04 | inactive: 0.114 | inactive: 0.062 | inactive: -0.016 | inactive: 0.024 | inactive: 0.012 | inactive: -0.025 | inactive: -0.035 | inactive: -0.009 | inactive: -0.015 | inactive: -0.052 | inactive: 0.023 | inactive: -0.033 | inactive: -0.036 |
| CD63 (UniProt P08962) | inactive: -0.042 | inactive: 0.026 | inactive: -0.031 | inactive: 0.047 | inactive: 0.057 | inactive: -0.114 | inactive: -0.038 | inactive: 0.018 | inactive: -0.016 | inactive: 0.066 | inactive: -0.012 | inactive: -0.063 | inactive: 0.078 | inactive: -0.023 | inactive: 0.017 | inactive: 0.005 | inactive: 0.049 | inactive: 0 | inactive: 0.039 | inactive: 0.023 |
| CCDC43 (UniProt Q96MW1) | inactive: -0.053 | inactive: 0.021 | inactive: 0.028 | inactive: -0.065 | inactive: -0.035 | inactive: -0.007 | inactive: 0.006 | inactive: 0.012 | inactive: -0.012 | inactive: -0.018 | inactive: 0.004 | inactive: -0.019 | inactive: 0.057 | inactive: 0.02 | inactive: -0.021 | inactive: -0.005 | inactive: -0.03 | inactive: 0.01 | inactive: 0.01 | inactive: -0.027 |
| CCNB1 (UniProt P14635) | inactive: -0.013 | inactive: 0.008 | inactive: 0.032 | inactive: -0.019 | inactive: 0.01 | inactive: 0.001 | inactive: -0.11 | inactive: -0.034 | inactive: 0.026 | inactive: 0.01 | inactive: -0.01 | active: 0.503 | inactive: 0.009 | inactive: -0.045 | inactive: -0.012 | inactive: -0.005 | inactive: 0.003 | inactive: 0.044 | inactive: -0.002 | inactive: 0 |
| CD3EAP isoform 2 (UniProt O15446) | inactive: 0.001 | inactive: -0.038 | inactive: 0.068 | inactive: -0.001 | inactive: 0.007 | inactive: 0.001 | inactive: -0.017 | inactive: 0.005 | inactive: -0.005 | inactive: 0.036 | inactive: -0.006 | inactive: -0.011 | inactive: 0.022 | inactive: -0.062 | inactive: -0.02 | inactive: -0.006 | inactive: -0.034 | inactive: 0.004 | inactive: 0.021 | inactive: 0.001 |
| CCPG1 isoform 5 (UniProt Q9ULG6) | inactive: -0.014 | inactive: 0.08 | inactive: 0.082 | inactive: 0.017 | inactive: 0.024 | inactive: 0.067 | inactive: -0.119 | inactive: 0.019 | inactive: 0.053 | inactive: -0.03 | inactive: 0.021 | inactive: -0.014 | inactive: 0.08 | inactive: 0.013 | inactive: 0.014 | inactive: -0.004 | inactive: -0.058 | inactive: -0.026 | inactive: -0.029 | inactive: -0.102 |
| CASP3 (UniProt P42574) | inactive: -0.002 | inactive: -0.02 | inactive: 0.044 | inactive: -0.001 | inactive: 0.034 | inactive: 0.02 | inactive: -0.042 | inactive: 0.011 | inactive: 0.039 | inactive: -0.007 | inactive: 0.028 | inactive: -0.004 | inactive: 0.009 | inactive: 0.012 | inactive: -0.048 | inactive: -0.047 | inactive: -0.026 | inactive: 0.025 | inactive: -0.02 | inactive: -0.01 |

An excerpt of these results, bar-delimited:
Target | log2 fold change (erlotinib) | log2 fold change [1] | log2 fold change [2] | log2 fold change [3] | log2 fold change [4] | log2 fold change [5] | log2 fold change [6] | log2 fold change [7] | log2 fold change [8] | log2 fold change (IRAK-1-4 Inhibitor I) | log2 fold change (ibrutinib) | log2 fold change [9] | log2 fold change (ralimetinib) | log2 fold change [10] | log2 fold change [11] | log2 fold change [12] | log2 fold change [13] | log2 fold change [14] | log2 fold change [15] | log2 fold change [16]
CD46 isoform 2 (UniProt P15529) | inactive: -0.028 | inactive: -0.022 | inactive: 0.037 | inactive: -0.003 | inactive: -0.004 | inactive: 0.007 | inactive: 0.02 | inactive: 0.001 | inactive: -0.023 | inactive: 0.022 | inactive: 0.014 | inactive: 0.004 | inactive: 0.048 | inactive: 0.028 | inactive: -0.018 | inactive: -0.004 | inactive: 0.03 | inactive: 0.056 | inactive: 0.004 | inactive: 0.017
CASTOR2 (UniProt A6NHX0) | inactive: -0.015 | inactive: -0.258 | inactive: -0.037 | inactive: -0.023 | inactive: 0.029 | inactive: 0.033 | inactive: 0.045 | inactive: -0.064 | inactive: 0.011 | inactive: 0.022 | inactive: -0.03 | inactive: 0.028 | inactive: 0.008 | inactive: 0.051 | inactive: -0.025 | inactive: -0.037 | inactive: 0.015 | inactive: -0.024 | inactive: 0.015 | inactive: -0.011
CCDC50 isoform 2 (UniProt Q8IVM0) | inactive: -0.085 | inactive: 0.028 | inactive: -0.103 | inactive: -0.024 | inactive: 0.02 | inactive: 0.014 | inactive: 0.072 | inactive: 0.041 | inactive: -0.013 | inactive: -0.023 | inactive: 0.068 | inactive: 0.019 | inactive: -0.014 | inactive: 0.072 | inactive: 0.002 | inactive: 0.014 | inactive: 0.066 | inactive: -0.009 | inactive: -0.008 | inactive: 0.009
CD59 isoform 2 (UniProt P13987) | inactive: 0.04 | inactive: -0.001 | inactive: 0.004 | inactive: 0.03 | inactive: -0.038 | inactive: 0.008 | inactive: -0.024 | inactive: 0.022 | inactive: 0.035 | inactive: 0.035 | inactive: -0.03 | inactive: -0.004 | inactive: -0.008 | inactive: -0.019 | inactive: -0.009 | inactive: 0.019 | inactive: 0.054 | inactive: -0.093 | inactive: -0.043 | inactive: -0.007
